Reference: PubChem BioAssay AID1259405 (NCATS, 2018)
Test: 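Mouse-designed siRNAs used to find CHO productivity engineering targets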 (primary screen). System: Chinese hamster CHO-K1 ovary cells with stable secreted eGFP expression. Reagent: single siRNA against mouse genes, 0.8 pmol siRNA per well (2 µl of 400 nM stock). Timing: 3 days. Read-out: 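Per-well intracellular GFP measured by laser scanning cytometry, plus viability from ATP luminescence, each relative to plate median of non-targeting control wells, in %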. Scale: GFP, % of control: higher = more GFP per well, higher productivity; viability (ATP), % of control: higher = more viable cells (more ATP). Call rule: 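a knock-down is called active if GFP reaches 120% or more of non-targeting control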.
The deposit covers about 50,000 reagents; this is an unselected part. In the full data, about 4,000 (8%) are marked active. 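Mouse siRNA library applied to hamster cells; one well for each siRNA.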 The numbers tell different reagents against one gene apart. No sequences are given here.

| Gene | reagent | GFP, % of control | viability (ATP), % of control | outcome |
| --- | --- | --- | --- | --- |
| Gdi2 | 1 | 59.3 | 74.7 | inactive |
| Gdi2 | 2 | 77.9 | 95.2 | inactive |
| Gdi2 | 3 | 73.1 | 92.8 | inactive |
| Gdi2 | 4 | 12.5 | 21.5 | inactive |
| Gdi2 | 5 | 29.4 | 35.3 | inactive |
| Gdi2 | 6 | 145 | 94.4 | active |
| Abhd16b | 1 | 135 | 70.5 | active |
| Abhd16b | 2 | 26 | 45.4 | inactive |
| Abhd16b | 3 | 103 | 62.7 | inactive |
| Kcnq5 | 1 | 67.9 | 49.2 | inactive |
| Kcnq5 | 2 | 98 | 60.8 | inactive |
| Kcnq5 | 3 | 93.5 | 90.5 | inactive |
| 1700088E04Rik | 1 | 83.3 | 84.4 | inactive |
| 1700088E04Rik | 2 | 29.2 | 35.7 | inactive |
| 1700088E04Rik | 3 | 51.6 | 50.2 | inactive |
| Cutc | 1 | 65.3 | 74.8 | inactive |
| Cutc | 2 | 111 | 92.7 | inactive |
| Cutc | 3 | 85.7 | 80.5 | inactive |
| Zfp1006 | 1 | 96.7 | 67.7 | inactive |
| Zfp1006 | 2 | 53.6 | 68.2 | inactive |
| Zfp1006 | 3 | 85.7 | 72.8 | inactive |
| Npy5r | 1 | 44 | 58.5 | inactive |
| Npy5r | 2 | 56.5 | 49.7 | inactive |
| Npy5r | 3 | 79.5 | 84.1 | inactive |
| Coro1a | 1 | 24.4 | 34.5 | inactive |
| Coro1a | 2 | 81.7 | 71.3 | inactive |
| Gprc5d | 1 | 57.3 | 88.2 | inactive |
| Gprc5d | 2 | 56.8 | 72 | inactive |
| Wdr11 | 1 | 56.3 | 60.7 | inactive |
| Wdr11 | 2 | 55.2 | 61 | inactive |
| Wdr11 | 3 | 80 | 86.8 | inactive |
| Nabp1 | 1 | 48.7 | 74.1 | inactive |
| Nabp1 | 2 | 73.6 | 48 | inactive |
| Nabp1 | 3 | 81.5 | 71.2 | inactive |

Sorted by “viability (ATP), % of control” (descending): some entries from above.
| Gene | reagent | GFP, % of control | viability (ATP), % of control | outcome |
| --- | --- | --- | --- | --- |
| Wdr11 | 3 | 80 | 86.8 | inactive |
| Nabp1 | 1 | 48.7 | 74.1 | inactive |
| Wdr11 | 2 | 55.2 | 61 | inactive |
| Wdr11 | 1 | 56.3 | 60.7 | inactive |
